# Experimental data taken from US20240141060A1, “DOSAGE REGIMES FOR ANTI-CD73 AND ANTI-ENTPD2 ANTIBODIES AND USES THEREOF” (NOVARTIS AG, priority 2021, published 2024).
# By UniProt entry, the sequences of proteins in these tests, tags left out. Residues count along the entry.
# UniProt P21589, residues 27-547: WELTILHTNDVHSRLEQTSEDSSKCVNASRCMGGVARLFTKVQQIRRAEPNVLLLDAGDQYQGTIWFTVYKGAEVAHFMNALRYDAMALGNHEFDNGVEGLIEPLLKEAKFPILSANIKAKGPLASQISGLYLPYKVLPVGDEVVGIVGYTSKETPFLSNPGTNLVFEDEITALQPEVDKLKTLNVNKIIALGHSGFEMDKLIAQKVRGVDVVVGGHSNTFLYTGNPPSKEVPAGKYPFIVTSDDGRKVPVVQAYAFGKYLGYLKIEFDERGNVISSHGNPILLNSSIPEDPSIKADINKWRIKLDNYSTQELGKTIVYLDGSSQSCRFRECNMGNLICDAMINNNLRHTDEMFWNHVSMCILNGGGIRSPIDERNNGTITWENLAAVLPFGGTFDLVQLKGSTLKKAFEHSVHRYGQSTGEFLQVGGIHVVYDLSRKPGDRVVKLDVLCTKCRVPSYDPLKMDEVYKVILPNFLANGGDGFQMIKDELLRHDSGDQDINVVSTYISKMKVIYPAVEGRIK
# UniProt Q61503, residues 29-549: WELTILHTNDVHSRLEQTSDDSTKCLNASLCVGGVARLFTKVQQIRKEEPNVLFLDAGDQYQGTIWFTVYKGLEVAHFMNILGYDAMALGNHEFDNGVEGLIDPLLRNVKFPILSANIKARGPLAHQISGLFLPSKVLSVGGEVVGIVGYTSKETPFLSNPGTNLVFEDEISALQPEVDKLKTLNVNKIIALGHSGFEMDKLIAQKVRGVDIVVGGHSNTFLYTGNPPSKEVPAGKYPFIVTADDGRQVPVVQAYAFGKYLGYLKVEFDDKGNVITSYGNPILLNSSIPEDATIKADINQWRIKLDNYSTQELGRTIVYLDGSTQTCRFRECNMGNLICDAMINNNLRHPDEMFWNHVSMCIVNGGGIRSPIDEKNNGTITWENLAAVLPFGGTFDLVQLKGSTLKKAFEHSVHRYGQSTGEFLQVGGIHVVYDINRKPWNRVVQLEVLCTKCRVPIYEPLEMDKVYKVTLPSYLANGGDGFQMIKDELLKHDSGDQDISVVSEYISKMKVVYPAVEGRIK
# Changes are numbered by the printed parent chain. These are yes or no findings as the source states them, for the method shown. Some results given as binding are weak or reduced against the parent protein; the word gives no strength.
# B1: 358.C (antibody, V domains shown)
# VH: QVQLQESGPGLVKPSETLSLTCTVSGGSISGRYWSWIRQPPGKGLEWIGYIYGTGSTNYNPSLKSRVTISVDTSKNQFSLKLSSVTAADTAVYYCARESQESPYNNWFDPWGQGTLVTVSS
# VL: DIQMTQSPSSVSASVGDRVTITCRASQGISSWLAWYQQKPGKAPKLLIYAASSLQSGVPSRFSGSGSGTDFTLTISSLQPEDFATYYCQQGNSFPRTFGGGTKVEIK
# B2: 356.C (antibody, V domains shown)
# VH: B1 VH with S30E, T54S, N58K
# VL: B1 VL
# B3: 350.C (antibody, V domains shown)
# VH: B1 VH with S30E, G31R, R32Y, T54R
# VL: B1 VL
# B4: 374.C (antibody, V domains shown)
# VH: EVQLLESGGGLVQPGGSLRLSCAASGFTFSYNAMSWVRQAPGKGLEWVSSISGTGGSTYYADSVKGRFTISRDNSKNTLYLQMNSLRAEDTAVYYCARGGLYGSGSYLSDFDLWGRGTLVTVSS
# VL: EIVLTQSPATLSVSPGERATLSCRASQSVGSNLAWYQQKPGQAPRLLIYGASTRATGIPARFSGSGSGTEFTLTISSLQSEDFAVYYCQQHNAFPYTFGGGTKVEIK
# B5: 373.C (antibody, V domains shown)
# VH: B4 VH with S30H, Y31R, N32Y, S50A, T54S, G56M, S57N
# VL: B4 VL
# B6: 379.C (antibody, V domains shown)
# VH: B4 VH with Y31R, N32Y
# VL: B4 VL
# B7: 377.C (antibody, V domains shown)
# VH: B4 VH with S30K, Y31S, N32Y, S50A, T54S, G56S, S57Y
# VL: B4 VL
# B8: 918.C (antibody, V domains shown)
# VH: B1 VH with G31S, R32Y, G53S, T54S
# VL: B1 VL
# B9: 376.C (antibody, V domains shown)
# VH: B4 VH with S30R, Y31S, N32Y, S50A, S52T, T54S, S57L
# VL: B4 VL
# B10: 918 (antibody, V domains shown)
# VH: B1 VH with G31S, R32Y, G53S, T54S
# VL: B1 VL
# B11: 358 (antibody, V domains shown)
# VH: B1 VH
# VL: B1 VL
# B12: 350 (antibody, V domains shown)
# VH: B1 VH with S30E, G31R, R32Y, T54R
# VL: B1 VL
# B13: 356 (antibody, V domains shown)
# VH: B1 VH with S30E, T54S, N58K
# VL: B1 VL
# B14: 373.A Fab (Fab, V domains shown)
# VH: B4 VH with S30H, Y31R, N32Y, S50A, T54S, G56M, S57N
# VL: EIVLTQSPATLSVSPGERATLSCRASQSVGSNLAWYQQKPGQAPRLLIYGASTRATGIPARFSGSGSGTEFTLTISSLQSEDFAVYYCQQHNAFPYTFGGGTKVEIKR
# Target: Cynomolgus CD73/NT5E Protein (His Tag) (Sino Biological Cat: 90192-C08H-50) (cynomolgus monkey)
# Test: ForteBio Octet (BLI)
row,binding,Binder
1,binds,B1
2,binds,B2
3,binds,B3
4,binds,B4
5,binds,B5
6,binds,B6
7,binds,B7

# Target: Recombinant Human 5′-Nucleotidase/CD73 Protein, CF (R&D Systems Cat: 5795-EN) (human) (UniProt P21589)
# Test: ForteBio Octet (BLI)
row,binding,Binder
1,binds,B1
2,binds,B2
3,binds,B8
4,binds,B3
5,binds,B4
6,binds,B5
7,binds,B9
8,binds,B6
9,binds,B7

# Target: Recombinant Mouse 5′-Nucleotidase/CD73 Protein, CF (R&D Systems Cat: 4488-EN) (mouse) (UniProt Q61503)
# Test: ForteBio Octet (BLI)
row,binding,Binder
1,binds,B1
2,binds,B2
3,binds,B8
4,binds,B3

# Target: Recombinant Mouse 5′-Nucleotidase/CD73 Protein, CF (R&D Systems Cat: 4488-EN) (mouse) (UniProt Q61503)
# Test: restated binding profile (Octet)
row,binding,Binder
1,binds,B10
2,binds,B11
3,binds,B12
4,binds,B13

# Target: Recombinant Human 5′-Nucleotidase/CD73 Protein, CF (R&D Systems Cat: 5795-EN) (human) (UniProt P21589)
# Test: screen of yeast-displayed human antibodies for binding to human CD73 (data not shown)
row,binding,Binder
1,binds,B10

# Target: Cynomolgus CD73/NT5E Protein (His Tag) (Sino Biological Cat: 90192-C08H-50) (cynomolgus monkey)
# Test: Biacore SPR, His-tagged CD73 captured by anti-His antibody on CM5 chip, Fab as analyte
row,binding,Binder
1,binds,B14

# Target: Recombinant Human 5′-Nucleotidase/CD73 Protein, CF (R&D Systems Cat: 5795-EN) (human) (UniProt P21589)
# Test: as above
row,binding,Binder
1,binds,B14
